Laboratory results as given in patent publication US20100168087A1, “BENZO[1,2,3]THIADIAZINE DERIVATES” (priority 2006, published 2010).

How the values were obtained:
male Sprague-Dawley rats = assay: elevated maze test in the rat; format: in vivo; conditions: per os, 60-min pretreatment, 5-min measurement, time spent in the open arms and number of entries into the open arms
Experimental: Pharmacological activity of the compounds of the general Formula (I) has been evaluated in elevated maze test in the rat.
The tests were carried out according to the method of S. Pellow and coworkers (J. Neurosci. Methods. 1985, 14, 149-167). During the test, a wooden-floor cross elevated by 50 cm from the floor was used. The length and the width of the arms of the cross were 100 and 15 cm, respectively. Two opposite arms of the cross are fitted at the ends and both sides with black plexyglass wall of 40 cm height (closed arms).
The central section of the cross measuring 15 by 15 cm is open. The other two opposite arms of the cross are not provided with walls (open arms).
The tests were carried out in male Sprague-Dawley rats weighing 200 to 220 g. After the 60-min pretreatment time (per os treatment), the animal was placed in the center of the maze. During the 5-min measurement time, four variables were recorded: the time spent in the open arms; the time spent in the closed arms; the number of entries into the open arms; the number of entries into the closed arms.
Animals normally avoid the open and light parts of the maze, thereby spending little time therein only. […] The minimum effective dose (MED) was determined for each tested compounds regarding the time spent in the open arms and the number of entries into the open arms. […]

melting point: 220 to 222 °C
Compound: CC1=NN(C)S(=O)(=O)c2c1ccc(Cl)c2Cl [Example 17, 7,8-Dichloro-2,4-dimethylbenzo[1,2,3]thiadiazine-1,1-dioxide]
MED (minimum effective dose), anxiolytic effect in elevated maze test (male Sprague-Dawley rats): ≦0.01 mg/kg p.o.
